Data taken from PubChem BioAssay AID540276 (National Center for Advancing Translational Sciences (NCATS), 2011).
“And” between values parts separate entries of the source, which are not always exact repeats. Equal entries are not always repeated. The whole screen tested about 300,000 compounds, of which about 5,400 (1.8%) were called active. Inconclusive means that the source gave no clear call. Such entries were picked first, then a sample of the others. Calls follow the shape of the full dose curve; tested in HEK293 cells. A potency beside an inconclusive call is a rough fit, not a confirmed value.

Test: qHTS for inhibitors of binding or entry into cells for Marburg Virus
Conditions: Marburg virus pseudotyped entry inhibition, cell reporter; activity change, negative = inhibition: at 37.8 µM (top of the series) unless noted
% is scaled to controls: 0 for no effect and ±100 for the full control effect; potency is read from the fitted curve at half-maximal effect.

Compound | Potency | activity change, negative = inhibition
CCN(CCCNC(=O)CN1C(=O)COc2ccc(S(=O)(=O)N3CCC(C)CC3)cc21)Cc1ccccc1 | inconclusive: 17.8 µM [inhibitor, partial curve, poor fit] | –
CCO/C(C)=N/n1c2nc3ccccc3nc2c2c(=O)n(C3CCCC3)c(C)nc21 | inconclusive: 3.98 µM [inhibitor, single point] | –
COc1ccc(NC(=O)CC(c2ccc(F)cc2)c2ccc(OC(C)C)cc2)cc1 (stereo not given) | inactive | –
CCOC(=O)C1(CCCc2ccccc2)CCN(C(=O)C(C)n2cncn2)CC1 (stereo not given) | inconclusive: 1 µM [inhibitor, full curve, poor fit] | –
COCc1nnc(NC(=O)CCc2ccc(OC)cc2)s1 | inconclusive: 1.26 µM [inhibitor, single point] | –
O=S(=O)(c1ccc2ccccc2c1)n1nc(-c2ccco2)nc1NCc1ccc(F)cc1 | inactive | –
S=C(Nc1ccc(Cl)cc1Cl)N1CCOCC1 | inactive | –
N#CC(=C1CCCC1)c1nc(-c2ccccc2O)cs1 | inconclusive: 1.12 µM [inhibitor, single point] | –
COc1ccc(-c2[nH]c(-c3ccc(C)cc3)nc2SCC(=O)NC2CCCC2)cc1 | inconclusive: 9.2 µM [inhibitor, partial curve, poor fit] | –
COC(=O)c1ccc(-n2cc(-c3ccc(OC)cc3)[nH]c2=S)cc1 | inconclusive: 6.51 µM [inhibitor, partial curve, poor fit] | –
O=C(N/N=C/c1ccc([N+](=O)[O-])o1)c1ccc(NS(=O)(=O)c2cccs2)cc1 | inconclusive: 14.1 µM [inhibitor, partial curve, poor fit] | –
N#CCSc1nc2[nH]ncc2c(=O)n1-c1ccccc1Br | inactive | –
CC(Sc1nnc(-c2ccc(Cl)cc2Cl)n1Cc1ccccc1)C(=O)Nc1nccs1 (stereo not given) | inconclusive: 17.8 µM [inhibitor, single point] | –
CCCn1c(C)cc(C(=O)CSc2nc3nc(C)cc(C)n3n2)c1C | inactive | –
Cc1ccccc1NC(=S)NNC(=O)c1csc2c1CCC(C)C2 (stereo not given) | inconclusive: 1.16 µM [activator, single point] | –
COc1cccc(Cn2nnc3c(=O)[nH]c(C4CCCN(C(=O)c5ccc(C)cc5)C4)nc32)c1 (stereo not given) | inconclusive: 0.891 µM [activator, full curve, poor fit] | –
Cc1cccc(C)c1OCc1cc(C(=O)N2CCN(c3ccccc3)CC2C)no1 (stereo not given) | active: 12.6 µM | –
CC1Cc2ccccc2N1S(=O)(=O)c1cccc(C(=O)NCc2ccncc2)c1 (stereo not given) | active: 7.94 µM | –
CCCC(C)C(=O)Nc1ccc(F)c(Cl)c1 (stereo not given) | inconclusive: 11.2 µM [inhibitor, partial curve] | –
COc1cccc([C@H]2Oc3ccc(OC)cc3C(=NO[C@H](C)CN3CCCc4nc(C)c(C)cc43)[C@H]2O)c1 | inconclusive: 7.5 µM [inhibitor, single point] | –
O=C(Nc1ccccc1)NC1(C(=O)N2CCC(O)CC2)CCCCC1 | inconclusive: 4.47 µM [activator, full curve, poor fit] | –
Cc1cc(-c2nnc(CCC(=O)NC(C)c3ccccc3Cl)o2)no1 (stereo not given) | inactive | –

Exported as labelled records: 2 of the compounds above
O=S(=O)(c1ccc2ccccc2c1)n1nc(-c2ccco2)nc1NCc1ccc(F)cc1
  Potency: inactive
S=C(Nc1ccc(Cl)cc1Cl)N1CCOCC1
  Potency: inactive

(further entries)

Compound | Potency | activity change, negative = inhibition
CC(CC(=O)Nc1ccc2c(c1)OCO2)c1ccccc1 (stereo not given) | inconclusive: 10 µM [activator, partial curve, poor fit] | –
COc1ccc(OC)c(NC(=S)N(CCc2c(C)[nH]c3ccc(C)cc23)Cc2cccs2)c1 | inconclusive: 29.1 µM [inhibitor, single point] | –
O=C(N=C1SCC(=O)N1c1ccccc1)c1ccco1 | inconclusive: 14.1 µM [activator, single point] | –
Cc1ccc(C(=O)NC(=S)NCC2CCCO2)cc1 (stereo not given) | inconclusive: 2.82 µM [activator, partial curve] | –
Cc1ccc(OCCCCN2CCCC(C)C2)c([N+](=O)[O-])c1 (stereo not given) | inconclusive: 17.8 µM [inhibitor, single point] | –
Cc1ccc(C(OC(=O)c2ccco2)C(=O)NCc2cccs2)cc1 (stereo not given) | inconclusive: 35.5 µM [activator, single point] | –
Cc1cccc(NC(=O)C2CCN(S(=O)(=O)c3c(C)c(C)cc(C)c3C)CC2)n1 | inconclusive: 22.4 µM [inhibitor, single point] | –
CCc1ccc(NC(=O)COc2ccc(/C=C(/C#N)c3nc4ccccc4[nH]3)cc2OC)cc1 | inconclusive: 2.51 µM [inhibitor, partial curve, poor fit] | –
COC(=O)n1c(SC)nc2ccccc21 | inconclusive: 0.0891 µM [activator, full curve, poor fit] | –
COc1cc(NC(=O)CSc2ccccc2)c(C(=O)O)cc1OC | inconclusive: 0.1 µM [activator, full curve, poor fit] | –
Cc1ccc(C)c(S(=O)(=O)NC(CC(C)C)C(=O)O)c1 (stereo not given) | inconclusive: 28.2 µM [inhibitor, single point] | –
O=[N+]([O-])c1nn(-c2ccccc2)[n+]([O-])c1N1CCN(c2ccccc2F)CC1 | inactive | –
COc1cc(C(O)CO)ccc1O (stereo not given) | inconclusive: 3.98 µM [inhibitor, full curve, poor fit] | –
O=C(N/N=C\C=C\c1ccc(Br)cc1)c1ccc2c(c1)OCO2 | inconclusive: 35.5 µM [inhibitor, partial curve, poor fit] | –
CCOc1cc(/C=C2/C(=O)ON=C2C)ccc1OCc1ccccc1F | inconclusive: 18.3 µM [inhibitor, single point] | –
CCn1nnc(-c2ccc(N)cc2)n1 | inconclusive: 10 µM [inhibitor, partial curve, poor fit] | –
COc1ccc(C(=O)N/N=C/c2cc3ccccc3[nH]c2=S)cc1 | inactive | –
Cc1onc(-c2ccccc2Cl)c1C(=O)N1CC(C)CC(C)C1 (stereo not given) | inconclusive: 22.4 µM [inhibitor, partial curve, poor fit] | –
COc1ccc(NC(=O)Nc2cccc3cccnc23)cc1 | inconclusive: 6.51 µM [activator, single point] | –
Fc1ccc(CN2CCN3CCCC3C2C2CCCCC2)cc1F (stereo not given) | inconclusive: 35.5 µM [inhibitor, partial curve, poor fit] | –
CCOc1cccc2sc(Nc3nc4ccc(NC(C)=O)cc4s3)nc12 | active: 10.3 µM | –
NC[C@@H]1O[C@H](C23CC4CC(CC(C4)C2)C3)Cc2c1ccc(O)c2O | active: 13 µM and active: 7.94 µM | –

Gathered by group, the entries above containing a halogen
Compound | Potency | activity change, negative = inhibition
COc1ccc(NC(=O)CC(c2ccc(F)cc2)c2ccc(OC(C)C)cc2)cc1 (stereo not given) | inactive | –
O=S(=O)(c1ccc2ccccc2c1)n1nc(-c2ccco2)nc1NCc1ccc(F)cc1 | inactive | –
S=C(Nc1ccc(Cl)cc1Cl)N1CCOCC1 | inactive | –
N#CCSc1nc2[nH]ncc2c(=O)n1-c1ccccc1Br | inactive | –
CC(Sc1nnc(-c2ccc(Cl)cc2Cl)n1Cc1ccccc1)C(=O)Nc1nccs1 (stereo not given) | inconclusive: 17.8 µM [inhibitor, single point] | –
CCCC(C)C(=O)Nc1ccc(F)c(Cl)c1 (stereo not given) | inconclusive: 11.2 µM [inhibitor, partial curve] | –
Cc1cc(-c2nnc(CCC(=O)NC(C)c3ccccc3Cl)o2)no1 (stereo not given) | inactive | –
O=[N+]([O-])c1nn(-c2ccccc2)[n+]([O-])c1N1CCN(c2ccccc2F)CC1 | inactive | –
O=C(N/N=C\C=C\c1ccc(Br)cc1)c1ccc2c(c1)OCO2 | inconclusive: 35.5 µM [inhibitor, partial curve, poor fit] | –
CCOc1cc(/C=C2/C(=O)ON=C2C)ccc1OCc1ccccc1F | inconclusive: 18.3 µM [inhibitor, single point] | –
Cc1onc(-c2ccccc2Cl)c1C(=O)N1CC(C)CC(C)C1 (stereo not given) | inconclusive: 22.4 µM [inhibitor, partial curve, poor fit] | –
Fc1ccc(CN2CCN3CCCC3C2C2CCCCC2)cc1F (stereo not given) | inconclusive: 35.5 µM [inhibitor, partial curve, poor fit] | –

Continued:

Compound | Potency | activity change, negative = inhibition
S=C(Nc1ccc(CN2CCCCC2)cc1)Nc1cccc(Cl)c1Cl | active: 11.2 µM | –
O=c1nc(N/N=C/c2ccccn2)cn[nH]1 | inconclusive: 3.55 µM [inhibitor, full curve, poor fit] | –
CCCC(=O)NC(c1ccccc1OC)c1ccc2cccnc2c1O (stereo not given) | inconclusive: 1.41 µM [inhibitor, full curve, poor fit] | –
N=c1sccn1CC(=O)Nc1ccc2c(c1)CCC2 | inconclusive: 14.6 µM [inhibitor, partial curve, poor fit] | –
Cc1ccc(SCc2[nH]nc3c2C(c2ccc(C)o2)C(C#N)=C(N)O3)cc1 (stereo not given) | inconclusive: 13 µM [inhibitor, partial curve, poor fit] | –
CCn1c(Cc2ccccc2)nnc1SCC(=O)Nc1nc2ccccc2s1 | inconclusive: 11.2 µM [activator, single point] | –
Cc1cc(NC(=O)c2ccccc2)no1 | inconclusive: 6.31 µM [inhibitor, single point] | –
COc1ccc(OC)c(C2=NO[C@@](CC(=O)O)(C(=O)Nc3ccc4c(c3)OCCO4)C2)c1 | inactive | –
C[C@@H]1[C@@H](c2ccccc2)Oc2c(Cl)cccc2S(=O)(=O)N1Cc1ccc(F)cc1 | inconclusive: 0.223 µM [inhibitor, full curve, poor fit] | –
CS(=O)(=O)Cc1ccc(C(=O)NNC(=O)c2cc(-c3ccccc3)n[nH]2)cc1 | inactive | –
C#CC(C)(CC)NC(=O)Cn1nnc(-c2ccc(OCc3ccccc3F)cc2)n1 (stereo not given) | inconclusive: 7.94 µM [activator, partial curve, poor fit] | –
COc1ccc(COC(=O)c2[nH]c3c(c2C)C(=O)CC(c2ccc(OC)c(OC)c2)C3)cc1 (stereo not given) | inconclusive: 3.98 µM [inhibitor, single point] | –
COc1ccc(-n2nc([N+](=O)[O-])c(=NCCC3=CCCCC3)n2O)cc1 | inactive | –
CN(C)NC(=S)NC(=O)C12CC3CC(CC(C3)C1)C2 | – | inconclusive: 24% [activator] [at 46.1 µM]
CC1CCCC(C)N1C(=S)NCc1ccco1 (stereo not given) | inconclusive: 3.98 µM [activator, full curve, poor fit] | –
CS(=O)(=O)Nc1nnc(SCC(=O)N(c2ccccc2)c2ccccc2)s1 | inconclusive: 0.794 µM [activator, single point] | –
COc1ccc(-c2nc(CN3CCC(C(=O)NCCCN4CCN(c5ccccc5F)CC4)CC3)c(C)o2)cc1OC | active: 4.47 µM | –
COc1cccc(NC(=O)Cc2nnc(SCC(=O)NC3CCCCC3)n2C)c1 | inconclusive: 3.55 µM [inhibitor, full curve, poor fit] | –
Nc1nc(NC(=O)c2ccco2)nn1-c1ccccc1 | inconclusive: 6.51 µM [activator, partial curve] | –
CCCOP(=O)(c1ccccc1)c1ccccc1 | inconclusive: 25.1 µM [inhibitor, single point] | –
CC(C)NC(=O)C(c1ccc(F)cc1)N(C(=O)CCC(=O)Nc1ccccn1)c1cccc(F)c1 (stereo not given) | inconclusive: 11.2 µM [inhibitor, partial curve, poor fit] | –
